Experimental data published in patent US9878046B2, “Adverse side-effects associated with administration of an anti-hyaluronan agent and methods for ameliorating or preventing the side-effects” (Halozyme, Inc., priority 2010, dated 2018).
At least one compound was matched to its structure with a doubt left.

What was measured:
[1] = tested on: PC3 prostate carcinoma cell line; experiment: Antitumor activity in PC3 prostate cancer xenograft model; assay type: in vivo, human (xenograft in athymic male nude mice); settings: dexamethasone low or high dose, alone or with PEGPH20 4.5 mg/kg
Description: Tumor cells from the PC3 prostate carcinoma cell line were grown to approximately 80% confluency then trypsinized, collected, washed once in HBSS (Hank's balance salt solution, Mediatech Inc.), then re-suspended in 50% Matrigel® in HBSS at 2×10^7 cells/mL on ice before inoculation into animals. Athymic male nude mice (Nu/Nu (Ncr); Taconic Farms; average weight ˜20 g) were inoculated intramuscularly (IM) with 0.05 mL of this cell suspension, peritibially, in the left hind leg (adjacent to the tibia periosteum). The implants in the animals were assessed twice a week and allowed to grow to a mean tumor volume of approximately 500 mm^3 (Day −2; Table 12). Actual tumor volumes were determined using VisualSonics Vevo 770 high-resolution ultrasound, using two perpendicular axial dimensions.
Animals were sorted randomly and grouped into 6 groups of 8 mice per group (6+2 satellite mice). […]
The tumor volumes of all mice were measured pre-treatment on Day −2 (average tumor volume of ˜500 mm^3) and on Day 1, 6, 9, 13, 16 and 20 by capturing images using the VisualSonic ultrasound system and using an ultrasound imaging software program to calculate tumor volume (Table 12).

[2] = tested on: soluble plasma hyaluronan; experiment: Soluble plasma hyaluronan ELISA in PC3 tumor-bearing mice; assay type: in vivo; settings: low dose dexamethasone (1.25 mg/kg)
Description: Plasma samples were additionally used to measure soluble plasma hyaluronan in the control group and each of the treatment groups (R&D Systems Catalog DY3614; ELISA assay). In the vehicle control group, the plasma hyaluronan levels ranged from 800,000 to 900,000 ng/mL.

[3] = tested on: pericellular hyaluronan; experiment: Hyaluronan staining of PC3 tumor sections; assay type: in vivo, human (xenograft in athymic male nude mice); settings: Day 14, dexamethasone low or high dose, PEGPH20 4.5 mg/kg, or both
Description: (§1) Tumor tissues from the two satellite mice from all 6 treatment groups in Example 9A.1 above, were harvested by tissue biopsy on Day 14 and stained for the presence of hyaluronan. Tumor biopsies were fixed in 10% NBF for 48 hours, embedded in paraffin, and sectioned. Samples were probed for hyaluronan using a biotinylated HA-binding protein (HABP), then probed with FITC-labeled streptavidin for detection. The cell nuclei were counterstained with DAPI (4′,6-diamidino-2-phenylindole) reagent. Micrographs were then captured using a Zeiss Microscope (Thornwood, N.Y.) coupled with the Spot imaging program (Diagnostic Instruments, Inc).
(§2) Hyaluronan expression in the sections was evaluated by the level of green fluorescent intensity in the sections.

[4] = tested on: soluble plasma hyaluronan; experiment: Soluble plasma hyaluronan ELISA in BxPC3 model mice; assay type: in vivo; settings: high dose dexamethasone (5 mg/kg)
Description: Plasma samples were additionally used to measure soluble plasma hyaluronan in the control group and each of the treatment groups (R&D Systems Catalog #DY3614; ELISA assay). In the vehicle control group, the plasma hyaluronan levels ranged from 2,000 to 4,000 ng/mL.

[5] = tested on: hyaluronan; experiment: Hyaluronan staining of BxPC3 tumor sections; assay type: in vivo, human (xenograft in athymic female nude mice); settings: Day 18, dexamethasone low or high dose, PEGPH20 4.5 mg/kg, or both
Description: as §1, with “9B.1” for “9A.1”, “18” for “14”
as §2

[6] = glucocorticoid, route IV or PO as listed; cited from earlier work

SMILES: C[C@@H]1C[C@H]2[C@@H]3CCC4=CC(=O)C=C[C@]4(C)[C@@]3(F)[C@@H](O)C[C@]2(C)[C@@]1(O)C(=O)CO [Dexamethasone]
- effect on tumor growth [1]: no effect on tumor growth inhibition
- plasma hyaluronan concentrations [2]: high range of variability in plasma hyaluronan concentrations
- pericellular hyaluronan staining of tumor sections [3]: significant pericellular hyaluronan staining was present
- plasma hyaluronan concentrations [4]: high range of variability in plasma hyaluronan concentrations
- hyaluronan staining of tumor sections [5]: significant pericellular hyaluronan staining was present
- Equivalent Potency [6]: 0.5 to 0.75 mg
